Results are given in words; binding and its absence hold for the method and conditions named. Binding seen in cells or lysates may run through a third protein. Binding can be weak; no strength is given. Tags and fused reporters may be left off the sequences shown.
T1: Polo.Flag (Drosophila) (UniProt P52304)
T1 sequence: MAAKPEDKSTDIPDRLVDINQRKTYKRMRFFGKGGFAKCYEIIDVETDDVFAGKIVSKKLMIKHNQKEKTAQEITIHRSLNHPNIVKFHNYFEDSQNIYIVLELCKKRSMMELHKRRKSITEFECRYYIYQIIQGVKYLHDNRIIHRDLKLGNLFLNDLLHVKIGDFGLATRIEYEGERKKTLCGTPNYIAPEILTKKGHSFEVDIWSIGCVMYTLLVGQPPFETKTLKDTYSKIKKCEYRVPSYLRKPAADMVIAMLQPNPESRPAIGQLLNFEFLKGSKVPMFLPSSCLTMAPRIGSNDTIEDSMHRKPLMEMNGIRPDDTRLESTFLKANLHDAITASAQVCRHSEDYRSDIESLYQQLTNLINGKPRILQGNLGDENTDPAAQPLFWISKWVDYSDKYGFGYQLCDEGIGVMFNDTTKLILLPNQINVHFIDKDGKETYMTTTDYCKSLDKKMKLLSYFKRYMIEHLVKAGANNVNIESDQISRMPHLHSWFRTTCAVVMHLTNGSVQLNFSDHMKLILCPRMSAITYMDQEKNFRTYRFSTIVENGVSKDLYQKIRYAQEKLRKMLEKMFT


Key:
[1] = target: T1, Polo.Flag (Drosophila); test: co-IP
[2] = target: Bsd.Myc (Drosophila); test: co-IP

Row | Molecule | binding [1] | binding [2]
1 | Bsd.Myc (Drosophila) | binds | 
2 | Yp3, Flag-HA C-terminal fusion (FMO11010) (protein, UniProt P06607 20-420) SKDASNDRLKPTKWLTATELENVPSLNDITWERLENQPLEQGAKVIEKIYHVGQIKHDLTPSFVPSPSNVPVWIIKSNGQKVECKLNNYVETAKAQPGFGEDEVTIVLTGLPKTSPAQQKAMRRLIQAYVQKYNLQQLQKNAQEQQQQLKSSDYDYTSSEEAADQWKSAKAASGDLIIIDLGSTLTNFKRYAMLDVLNTGAMIGQTLIDLTNKGVPQEIIHLIGQGISAHVAGAAGNKYTAQTGHKLRRITGLDPAKVLSKRPQILGGLSRGDADFVDAIHTSTFAMGTPIRCGDVDFYPNGPSTGVPGSENVIEAVARATRYFAESVRPGSERNFPAVPANSLKQYKEQDGFGKRAYMGLQIDYDLRGDYILEVNAKSPFGQRSPAHKQAAYHGMHHAQN |  | binds weakly
3 | Jaguar (Jar), Flag-HA C-terminal fusion (FMO12286) (protein, UniProt Q01989 1-1253) MLEDTQLVWVRDAAEGYIQGRITEIGAKEFEVTPTDRKYPKRTCHFDDIHSSCDGPQDHDDNCELMLLNEATFLDNLKTRYYKDKIYTYVANILIAVNPYREIKELYAPDTIKKYNGRSLGELPPHVFAIADKAIRDMRVYKLSQSIIVSGESGAGKTESTKYLLKYLCYSHDSAGPIETKILDANPVLEAFGNAKTTRNNNSSRFGKFIEVHYDAKCQVVGGYISHYLLEKSRICTQSAEERNYHVFYMLLAGAPQQLRDKLSLGKPDDYRYLSGCTQYFANAKTEQLIPGSQKSKNHQQKGPLKDPIIDDYQHFHNLDKALGRLGLSDTEKLGIYSLVAAVLHLGNIAFEEIPDDVRGGCQVSEASEQSLTITSGLLGVDQTELRTALVSRVMQSKGGGFKGTVIMVPLKIYEASNARDALAKAIYSRLFDRIVGLINQSIPFQASNFYIGVLDIAGFEYFTVNSFEQFCINYCNEKLQKFFNDNILKNEQELYKREGLNVPEITFTDNQDIIELIEAKSNGIFTLLDEESKLPKPSYSHFTAEVHKSWANHYRLGLPRSSRLKAHRTLRDEEGFLVRHFAGAVCYNTEQFIEKNNDALHASLEGLVQECDNPLLQTLFPSGSSTSVRGKLNFISVGSKFKTQLGELMEKLEQNGTNFIRCIKPNSKMIDRQFEGSLALAQLKCSGTISVLELMEHGYPSRVLFADLYSMYKSVLPPELVSLPARTFCEAMFQSLNLSAKDFKFGITKVFFRPGKFVEFDRIMRSDPENMLAIVAKVKKWLIRSRWVKSALGALCVIKLRNRIIYRNKCVLIAQRIARGFLARKQHRPRYQGIGKINKIRTNTLKTIEIASGLKMGREEIISGVNDIYRQIDDAIKKIKMNPRITQREMDSMYTVVMANMNKLTVDLNTKLKEQQQAEEQERLRKIQEALEAERAAKEAEEQRQREEIENKRLKAEMETRRKAAEAQRLRQEEEDRRAALALQEQLEKEAKDDAKYRQQLEQERRDHELALRLANESNGQVEDSPPVIRNGVNDASPMGPNKLIRSENVRAQQQALGKQKYDLSKWKYSELRDAINTSCDIELLEACRQEFHRRLKVYHAWKAKNRKRTTMDENERAPRSVMEAAFKQPPLVQPIQEIVTAQHRYFRIPFMRANAPDNTKRGLWYAHFDGQWIARQMELHADKPPILLVAGTDDMQMCELSLEETGLTRKRGAEILEHEFNREWERNGGKAYKNLGAAKPNGPAAAMQKQQ |  | binds weakly

From paper doi:10.1101/2020.06.16.155333
